# Primary screen of a compound library

Sequences of proteins named here, by UniProt entry; tags and fusion partners are left off. Residues count along the entry.
UniProt A4I591, 1-473: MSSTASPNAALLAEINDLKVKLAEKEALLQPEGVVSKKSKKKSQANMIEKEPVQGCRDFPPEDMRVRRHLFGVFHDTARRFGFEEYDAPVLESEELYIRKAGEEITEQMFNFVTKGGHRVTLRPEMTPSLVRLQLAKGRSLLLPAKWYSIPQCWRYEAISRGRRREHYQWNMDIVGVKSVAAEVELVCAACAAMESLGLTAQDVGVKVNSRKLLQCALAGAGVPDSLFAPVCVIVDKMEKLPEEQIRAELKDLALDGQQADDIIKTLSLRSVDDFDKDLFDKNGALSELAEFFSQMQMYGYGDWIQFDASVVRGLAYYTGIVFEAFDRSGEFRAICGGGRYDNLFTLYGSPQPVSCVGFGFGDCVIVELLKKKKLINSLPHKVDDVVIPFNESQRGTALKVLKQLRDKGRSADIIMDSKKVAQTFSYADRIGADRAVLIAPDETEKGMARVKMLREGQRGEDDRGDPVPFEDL
UniProt Q4DA54, 1-478: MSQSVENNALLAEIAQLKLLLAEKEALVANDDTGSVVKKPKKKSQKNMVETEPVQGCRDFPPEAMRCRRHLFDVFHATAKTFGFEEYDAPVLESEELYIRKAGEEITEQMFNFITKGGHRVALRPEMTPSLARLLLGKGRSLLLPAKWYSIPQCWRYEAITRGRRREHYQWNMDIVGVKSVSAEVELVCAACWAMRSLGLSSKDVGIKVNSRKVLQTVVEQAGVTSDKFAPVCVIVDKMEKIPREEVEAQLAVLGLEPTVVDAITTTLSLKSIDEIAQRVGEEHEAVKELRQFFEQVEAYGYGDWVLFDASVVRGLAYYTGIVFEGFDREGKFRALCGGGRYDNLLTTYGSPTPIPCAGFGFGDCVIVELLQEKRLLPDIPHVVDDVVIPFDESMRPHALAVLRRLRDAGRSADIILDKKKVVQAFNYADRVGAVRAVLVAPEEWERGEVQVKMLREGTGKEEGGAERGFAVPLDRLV
UniProt Q8IDJ8, 1-583: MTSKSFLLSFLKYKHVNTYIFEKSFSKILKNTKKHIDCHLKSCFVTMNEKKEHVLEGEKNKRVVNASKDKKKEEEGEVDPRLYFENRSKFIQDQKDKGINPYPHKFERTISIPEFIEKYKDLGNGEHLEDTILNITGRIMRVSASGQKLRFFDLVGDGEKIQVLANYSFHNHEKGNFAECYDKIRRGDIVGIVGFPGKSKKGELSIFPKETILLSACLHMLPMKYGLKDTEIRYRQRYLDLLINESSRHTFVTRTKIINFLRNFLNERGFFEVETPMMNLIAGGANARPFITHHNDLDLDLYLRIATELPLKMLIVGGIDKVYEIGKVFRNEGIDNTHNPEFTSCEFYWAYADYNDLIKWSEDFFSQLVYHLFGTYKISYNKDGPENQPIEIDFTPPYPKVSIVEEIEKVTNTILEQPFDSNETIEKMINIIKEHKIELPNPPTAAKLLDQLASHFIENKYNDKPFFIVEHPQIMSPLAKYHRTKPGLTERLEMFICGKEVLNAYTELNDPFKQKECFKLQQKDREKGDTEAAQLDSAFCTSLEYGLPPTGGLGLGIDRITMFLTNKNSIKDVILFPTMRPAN

Data taken from ChEMBL document CHEMBL3988442, “University of Dundee, Small-Polar-MMV Screening Library” (2021).

A: 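Histidine-tRNA ligase, Leishmania infantum (UniProt A4I591). Enzyme assay of histidyl-tRNA synthetase; the read-out is not stated. Tested at 30 µM. Higher reads as stronger inhibition (inferred: compounds with an IC50 in retests scored well above the rest). The assay is labelled LdHisRS but filed under L. infantum. Size under these conditions: about 69,000 compounds, about 410 of them at 50% or above in at least one test.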
B: 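Histidine-tRNA ligase, Trypanosoma cruzi CL Brener (UniProt Q4DA54). Enzyme assay of histidyl-tRNA synthetase; the read-out is not stated. Compounds at 30 µM. Direction is inferred from retests: higher values go with stronger inhibition. Of about 69,000 compounds tested this way, about 31 (0.045%) reached 50% or more in at least one test.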
C: 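Enzyme assay of the cytosolic lysyl-tRNA synthetase in 384-well plates, read by luminescence. Target: Lysine-tRNA ligase, Plasmodium falciparum 3D7 (UniProt Q8IDJ8). Concentration: 30 µM. Direction is inferred from only a few compounds that gave an IC50; most scored high, so higher reads as stronger inhibition. Size under these conditions: about 69,000 compounds, about 49 of them at 50% or above in at least one test.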
D: 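Cell assay of Leishmania donovani living inside macrophages; the read-out is not stated. Tested at 30 µM. Higher reads as stronger inhibition (inferred: compounds with an IC50 in retests scored well above the rest). Size under these conditions: about 69,000 compounds, about 1,000 of them at 50% or above in at least one test.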

Each number is a percent effect as filed. The controls that fix the scale are not given in the record; negative values are as filed. This is an unselected part of the compounds tested. Two or more numbers in one place are separate tests of the same structure; such repeats can differ widely. A dash means the value is not listed here; it may have been measured.

| SMILES | A | B | C | D |
|---|---|---|---|---|
| `CC(NC(=O)NCCCn1cncn1)c1ccccc1F` (configuration not stated) | 5.357 | 5.187 | 1.87 | -42.31 |
| `O=C(NCc1nnc2n1CCCCC2)N(Cc1ccccn1)C1CC1` | 9.589 | 0 | 1.97 | 14.61 |
| `CCCc1n[nH]c(C2CN(CCNC3CCCCC3)CCO2)n1` (configuration not stated) | -14.29 | 8.247 | -0.2496 | 21.95 |
| `Cc1ccccc1C(CNC(=O)CSc1nnc(N)s1)N(C)C` (configuration not stated) | -1.613 | 1.948 | 4.146 | 11.84 |
| `CC(CC(=O)NCCNS(C)(=O)=O)C1CCCCC1` (configuration not stated) | 15.22 | 10 | -3.306 | 12.79 |
| `[H][C@@]12CCCO[C@]1([H])[C@H](OCC(=O)N(C)C)CN2Cc1ccccc1` | - | - | - | -45.71 |
| `Cc1ccc2nc(CN3CCCCC3CCN3CCOCC3)cn2c1` (configuration not stated) | 18.07 | 4.478 | 1.697 | 36.65 |
| `Cc1ccccc1N1CC(C)N(Cc2ccc(C)c(F)c2F)CC1=O` (configuration not stated) | 36.14 | 2.762 | 3.006 | -21.08 |
| `COCc1ncn2c1CN(S(=O)(=O)c1ccc(C)cc1)CC2` | 9.589 | 3.96 | 5.367 | -21.17 |
| `CNC(=O)CNC1CC2(CCN(c3ncccn3)CC2)c2ccccc21.O=C(O)C(F)(F)F.O=C(O)C(F)(F)F` (configuration not stated) | - | - | - | -4.57 and 21.23 |
| `O=C(c1cc(C2CC2)on1)N1CCC(Oc2ncccc2Cl)CC1` | 5.217 | 2.062 | 1.686 | -0.1069 and 3.725 |
| `CC(C)c1nn(C)cc1CNC1CCOc2ccccc21` (configuration not stated) | 9.091 | 4.094 | 0.3691 | - |
| `CC(=O)Nc1nc(C(=O)N2CCCC2c2noc(C3CC3)n2)cs1` (configuration not stated) | 10.71 | 5.187 | 1.364 | 0.7706 |
| `COc1ccc(-c2cc(C3CCNCC3)nc(C)n2)cc1` | 17.02 | 7.752 | -0.4148 | - |
| `O=c1ccncn1Cc1csc(C2CC2)n1` | 4.478 | 3.191 | 2.744 | 2.142 |
| `CC(C)(C)CC(=O)N1CC[C@H]2NC(=O)N(Cc3ccccc3)C(=O)[C@H]21` | 30.56 | 13.86 | 2.091 | - |
| `CC1c2cccn2CCN1S(=O)(=O)N1CCCCCC1` (configuration not stated) | 3.226 | 3.093 | 0.3753 | -22.28 |
| `O=C(O)C(F)(F)F.[H][C@@]12CCN(Cc3ccc(F)cc3)C[C@@]1([H])[C@H](C(=O)NCC1CC1)CCO2` | - | - | - | -3.332 |
| `Cc1ccc(OCCN(C)C(C)c2cccc(S(N)(=O)=O)c2)cc1` (configuration not stated) | 13.68 | 2.564 | 1.313 | 26.17 |
| `Cc1ncnc2c1CCN(CC1CCOC1)CC2` (configuration not stated) | 17 | 14.29 | 0.5594 | - |
| `CCc1noc(C2CCCCN2C(=O)c2cc(C)on2)n1` (configuration not stated) | 15.52 | 5.217 | 4.101 | -7.742 |
| `CC(C)c1nnc(NCc2cc3n(n2)CCNC3)s1` | 22.39 | 0 | 2.255 | -5.415 |
| `COc1ccccc1C(NC(=O)NC1CC1)c1noc(C)n1` (configuration not stated) | 15.79 | 9.244 | 5.217 | 9.828 |
| `CS(=O)(=O)CCNC(=O)Nc1ccc(Cl)cc1-n1cccc1` | 10.71 | -4.386 | -2.432 | 17.56 |
| `CC(C)(C)CC(=O)N1CCC(n2cc(C3(O)CCCC3)nn2)CC1` | 34.29 | 2.597 | 2.229 | -5.106 |
| `CC(NC(=O)NCc1ccc(Cl)s1)c1ccccn1` (configuration not stated) | 18.92 | -1.88 | 0.6049 | 17.66 |
| `O=C(Nc1cccc(C(F)(F)F)c1)N1CCN(CCn2ccnc2)CC1` | 9.402 | 3.333 | 4.81 | 1.485 |
| `CCN1C[C@H]2[C@@H](C1)N(C(=O)Cc1ccsc1)CC[C@H]2OC` | 11.54 | 3.883 | 1.449 | - |
| `CC(C)CNC(=O)[C@H]1CCS(=O)(=O)[C@@H]2CN(c3ncccn3)C[C@H]12` | 13.86 | -6.533 | 1.95 | - |
| `Cc1c[nH]c(C2CCCN(Cc3ccccc3C(=O)O)C2)n1.O=CO` (configuration not stated) | - | - | - | -7.994 |
| `O=C(Nc1ccc(-c2csnn2)cc1)N1CCN2CCCCC2C1` (configuration not stated) | 12.5 | 10.13 | 2.542 | 9.994 |
| `Cc1ccc(C)c(CNC(=O)NC(C)(C(=O)O)c2ccco2)c1` (configuration not stated) | 16.67 | 0.7576 | 2.49 | -9.509 |
| `Cn1nc2c(cc1=O)CN(CC(=O)NC1CCCCNC1=O)CC2` (configuration not stated) | 6.667 | 9.804 | 9.263 | 2.208 |
| `CC(CO)NC(=O)c1ccc(NCc2ccccc2)cc1` (configuration not stated) | 18.99 | 1.293 | 5.796 | 34.58 |
| `CCn1c(C2CCCN(Cc3cc(F)ccc3OC)C2)nn(C)c1=O` (configuration not stated) | 4.918 | -1.163 | 5.35 | -1.152 |
| `CNC(C(=O)N1CCC(c2nccn2C(C)C)CC1)c1ccccc1` (configuration not stated) | 15.2 | -1.508 | -0.3064 | 8.054 |
| `O=C1OCCN1Cc1ncnn1Cc1c(F)cccc1Cl` | 11.48 | -0.8 | -3.213 | -0.7956 |
| `COCCc1noc(CN2CCCC2c2c(C)nn(C)c2Cl)n1` (configuration not stated) | 18.42 | 2.312 | 0.7938 | 7.014 |
| `CCn1ccnc1CN1CCN(Cc2cccc(C#N)c2)CC1` | 16.36 | -7.018 | -2.359 | 20.21 |
| `O=C(O)C(F)(F)F.[H][C@@]12CCN(c3nnc(C)s3)C[C@@]1([H])O[C@H](c1nc(C)no1)C2` | - | - | - | 45.73 |
| `Cc1ccc(C(=O)N2CCC3(CC2)CC(N2CCCC2)C3)cc1` | 19.51 | 0 | 1.573 | - |
| `C[C@@H]1CN(C(=O)c2cccs2)C[C@]12CCN(CCN(C)C)C2=O.O=C(O)C(F)(F)F` | - | - | - | 30.58 |
| `COC(=O)[C@H]1CN(C(C)=O)CCN1C(C)=O` | 24.32 | 2.488 | 7.381 | 18.69 |
| `CC(C)N(C)Cc1cn2c(n1)CN(C(=O)Cc1ccccc1)CC2.O=C(O)C(F)(F)F` | - | - | - | -1.705 |
| `CCOCCCC(=O)NCc1cn2cc(Br)ccc2n1` | 22.86 | 5.435 | 12.62 | -4.026 |
| `Cc1ccc(CN2CCc3[nH]nc(C(=O)N4CCN(C)CC4)c3C2)o1` | 5.825 | -3.883 | -3.029 | - |
| `COc1ccc(-n2cccn2)c(CN2CCC3(CCNCC3)C2)c1` | 22.45 | 8.205 | 3.187 | 22.01 |
| `CC(C)(C)C(O)CN1CCN(Cc2cccc(C#N)c2)CC1` (configuration not stated) | 19.18 | 3.175 | 6.112 | -11.48 |
| `Cc1cc(S(=O)(=O)N2CCC(S(C)(=O)=O)C2)ccc1F` (configuration not stated) | 0 | 6.533 | 4.547 | 24.83 |
| `COC(C)(C)C(=O)N1CCC(c2cc(CN(C)C)n(C)n2)CC1` | 14.77 | 4.857 | 0.3715 | - |